# These are yes or no findings as the source states them, for the method shown. Binding seen in cells or lysates may run through a third protein. Some results given as binding are weak or reduced against the parent protein; the word gives no strength. Tags and fused reporters may be left off the sequences shown.
# The chains behind the UniProt entries cited, without tags or fusion partners.
# UniProt P42336: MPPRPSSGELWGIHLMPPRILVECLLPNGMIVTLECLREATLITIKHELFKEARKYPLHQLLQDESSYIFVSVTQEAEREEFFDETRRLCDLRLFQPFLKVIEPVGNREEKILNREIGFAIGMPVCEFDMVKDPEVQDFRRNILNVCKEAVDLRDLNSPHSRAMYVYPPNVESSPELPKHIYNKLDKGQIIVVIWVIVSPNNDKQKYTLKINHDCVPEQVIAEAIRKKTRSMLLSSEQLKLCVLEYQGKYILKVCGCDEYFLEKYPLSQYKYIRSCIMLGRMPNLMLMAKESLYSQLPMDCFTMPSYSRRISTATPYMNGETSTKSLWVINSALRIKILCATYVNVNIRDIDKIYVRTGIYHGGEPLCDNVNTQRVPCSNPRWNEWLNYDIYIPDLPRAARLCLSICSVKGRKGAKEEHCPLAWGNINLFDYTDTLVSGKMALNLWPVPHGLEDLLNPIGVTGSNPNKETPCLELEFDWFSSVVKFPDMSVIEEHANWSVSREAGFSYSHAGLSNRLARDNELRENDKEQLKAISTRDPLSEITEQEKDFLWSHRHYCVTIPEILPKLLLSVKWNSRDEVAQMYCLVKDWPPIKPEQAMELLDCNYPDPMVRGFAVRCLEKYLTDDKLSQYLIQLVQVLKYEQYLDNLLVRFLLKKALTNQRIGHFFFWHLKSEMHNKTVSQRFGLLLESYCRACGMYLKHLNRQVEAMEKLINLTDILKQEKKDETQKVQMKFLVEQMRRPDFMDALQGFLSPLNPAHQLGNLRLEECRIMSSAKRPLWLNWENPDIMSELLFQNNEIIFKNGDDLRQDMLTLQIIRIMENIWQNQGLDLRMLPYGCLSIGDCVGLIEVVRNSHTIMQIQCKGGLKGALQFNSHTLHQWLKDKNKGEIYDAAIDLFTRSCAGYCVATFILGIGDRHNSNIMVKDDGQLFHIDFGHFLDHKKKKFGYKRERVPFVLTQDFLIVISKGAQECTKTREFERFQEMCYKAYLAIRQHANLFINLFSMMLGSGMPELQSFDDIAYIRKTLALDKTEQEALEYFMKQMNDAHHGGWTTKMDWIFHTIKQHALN
# Biological target: PI3K p110α (PIK3CA) wild type, LgBiT fusion, in live H358 cells (UniProt P42336)
# Experiment: split reporter
row,Molecule,binding
1,"MRAS, SmBiT fusion, in live H358 cells (from UniProt O14807 1-208)",binds
2,"RRAS, SmBiT fusion, in live H358 cells (protein, UniProt P10301 1-218) MSSGAASGTGRGRPRGGGPGPGDPPPSETHKLVVVGGGGVGKSALTIQFIQSYFVSDYDPTIEDSYTKICSVDGIPARLDILDTAGQEEFGAMREQYMRAGHGFLLVFAINDRQSFNEVGKLFTQILRVKDRDDFPVVLVGNKADLESQRQVPRSEASAFGASHHVAYFEASAKLRLNVDEAFEQLVRAVRKYQEQELPPSPPSAPRKKGGGCPCVLL",binds
3,"RAS2 (TC21), SmBiT fusion, in live H358 cells (protein, UniProt P62070 1-204) MAAAGWRDGSGQEKYRLVVVGGGGVGKSALTIQFIQSYFVTDYDPTIEDSYTKQCVIDDRAARLDILDTAGQEEFGAMREQYMRTGEGFLLVFSVTDRGSFEEIYKFQRQILRVKDRDEFPMILIGNKADLDHQRQVTQEEGQQLARQLKVTYMEASAKIRMNVDQAFHELVRVIRKFQEQECPPSPEPTRKEKDKKGCHCVIF",binds
